PubChem BioAssay AID504791 – Drosophila RNAi Screening Center, 2011
Purpose: 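Genes whose knock-down strengthens or weakens small-RNA reporter silencing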 (primary screen). Cells: Drosophila S2-derived reporter cells. Reagent: long dsRNA against Drosophila genes, about 150-250 ng dsRNA per well (siRNA assay); about 80-120 ng (miRNA assay). Timing: about 5 days (siRNA assay); about 4 days (miRNA assay). Challenge: copper sulfate induction of reporters: 25 µM (siRNA assay); 200 mM stated (miRNA assay), 1-2 days before reading. Read-out: 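Per-well ratio of Renilla over firefly light, expressed relative to that plate's average ratio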. Scale: siRNA reporter hit score: higher = 3 marks a strong hit with raised ratio; -3 a strong hit with lowered ratio. Hit rule: 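First-pass picks had plate-scaled ratios over 1.5 for the siRNA assay, over 1.6 for the miRNA assay, or under 0.6; two distinct dsRNAs had to score alike on retest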.
The deposit covers about 23,000 reagents; below is an unselected part of those with a known target gene and a result. In the full data, 199 (0.86%) were called active. 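Plate-scaled ratios behind the calls are not deposited; printed light signals are raw; many rows marked increased or decreased are still called inactive.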 A number with no mark means an inactive call. Reagent sequences are not shown.

Target gene	DRSC id	siRNA reporter hit score	stable siRNA reporter change	miRNA reporter change	stable assay Renilla, run 1 (luminescence)	stable assay firefly, run 1 (luminescence)
nst	DRSC09755				8176	5.42e5
mthl7	DRSC10852				5487	3.83e5
CG11037	DRSC11631				6682	3.51e5
CG31900 (retired record)	DRSC21835				4295	5.36e5
Sprn	DRSC10132				6108	4.06e5
CG8950	DRSC07300				9662	4.00e5
CG15771	DRSC18077				5067	3.17e5
Cypl	DRSC08362				6211	3.04e5
CG3348	DRSC15480				6458	4.21e5
CG14262	DRSC14757				5575	3.24e5
Mettl3	DRSC15921				6718	3.18e5
CG17717	DRSC18130				5286	3.11e5
CG30470 (retired record)	DRSC05553				4036	2.09e5
CG30470 (retired record)	DRSC06260				5232	3.26e5
CG30470 (retired record)	DRSC06261				6318	3.03e5
CG30470 (retired record)	DRSC06777				5479	2.93e5
CG30470 (retired record)	DRSC23183				4691	3.67e5
CG5762	DRSC15869				8170	3.48e5
hob	DRSC08426				6779	3.64e5
CG42720 (retired record)	DRSC22549				4828	5.26e5
fos28F (retired record)	DRSC03391				8510	5.90e5
CG11131	DRSC11636				7406	5.18e5
CG11131	DRSC21736				9537	4.37e5
mEFTs	DRSC02953				6359	1.48e6
vsg	DRSC10219				3988	2.62e5
et	DRSC19582				6972	5.33e5
I-3	DRSC20479				6218	4.09e5
CG15404	DRSC00418				9619	5.12e5
CG17385	DRSC06664			reporter ratio lowered past the hit cutoff (active)	5828	4.92e5
cnc	DRSC14676				7191	3.12e5
cnc	DRSC15289				10376	3.07e5
cnc	DRSC15600				8011	3.36e5
cnc	DRSC15601				8191	2.82e5
CG15711	DRSC06582				6027	2.47e5
Pgant3	DRSC05942				32907	2.20e6

Quoted from above, 9 entries:
Target gene	DRSC id	siRNA reporter hit score	stable siRNA reporter change	miRNA reporter change	stable assay Renilla, run 1 (luminescence)	stable assay firefly, run 1 (luminescence)
et	DRSC19582				6972	5.33e5
I-3	DRSC20479				6218	4.09e5
CG15404	DRSC00418				9619	5.12e5
CG17385	DRSC06664			reporter ratio lowered past the hit cutoff (active)	5828	4.92e5
cnc	DRSC14676				7191	3.12e5
cnc	DRSC15289				10376	3.07e5
cnc	DRSC15600				8011	3.36e5
cnc	DRSC15601				8191	2.82e5
CG15711	DRSC06582				6027	2.47e5

Next results follow:
Target gene	DRSC id	siRNA reporter hit score	stable siRNA reporter change	miRNA reporter change	stable assay Renilla, run 1 (luminescence)	stable assay firefly, run 1 (luminescence)
RabX1	DRSC04678				6090	3.39e5
acs	DRSC08185				6119	4.34e5
CG30392	DRSC22341				8580	4.44e5
CG10803	DRSC17763				7554	4.50e5
CG7763	DRSC07043				6384	3.86e5
CLIP-190	DRSC03283				8892	1.67e6
l(2)27Cb (retired record)	DRSC02758				8295	3.31e5
CG13837	DRSC14687				5379	2.90e5
CG5509	DRSC15822				7422	4.50e5
GstE10	DRSC06671				7398	3.75e5
Nup358	DRSC14410				11324	4.57e5
CG3546	DRSC18308			reporter ratio lowered past the hit cutoff	3632	3.23e5
RpL26	DRSC10726				7842	3.44e5
ScpX	DRSC03430				7018	1.58e6
CG33673	DRSC00084				5003	4.65e5
FASN1	DRSC00268				26666	2.57e5
wap	DRSC20626				7258	3.40e5
Ugt303A1	DRSC15641				5535	3.13e5
CG33475	DRSC22943				4708	4.13e5
l(2)k09848	DRSC04894				8807	1.63e6
CG14180 (retired record)	DRSC10179			reporter ratio lowered past the hit cutoff	3967	2.31e5
Hrb98DE	DRSC16709	-3 (active)	reporter ratio raised past the hit cutoff	reporter ratio raised past the hit cutoff	22140	3.17e5
vn	DRSC11408				6042	2.87e5
vn	DRSC23221				4731	3.07e5
CG34320 (retired record)	DRSC17682				7670	4.32e5
Rsbp15	DRSC14176				6410	4.41e5
shi	DRSC20373				9066	5.07e5
CngA	DRSC06580				5834	2.83e5
CngA	DRSC07362				6010	3.68e5
Rift	DRSC14330				5311	3.25e5
Bacc	DRSC00735				7338	3.61e5
CG34230	DRSC05317				7806	3.89e5
CG33096	DRSC14440				8734	3.71e5
peb	DRSC18817				5163	1.98e5
peb	DRSC23057				3995	2.50e5
CG31347	DRSC21582				10979	5.97e5
Pdh	DRSC11249				8190	3.49e5
Cad89D	DRSC15022				8574	4.72e5
CG13384	DRSC02258				12559	5.12e5
CG17118	DRSC02579				7899	4.21e5
CG9525	DRSC03249				6902	3.56e5
CG9592	DRSC11078				7649	4.33e5
goe	DRSC19345				6103	4.50e5
CG9919	DRSC20219				6250	5.69e5
SA2	DRSC08385				7924	5.05e5
kat-60L1	DRSC12184				7384	4.40e5
YL-1	DRSC02765				8672	3.92e5
rin	DRSC17045		reporter ratio raised past the hit cutoff		6126	2.10e5
rin	DRSC22997				3219	2.85e5
